{"sequences": {"note": "The chains behind the UniProt entries cited, without tags or fusion partners. Where a name states a change or a piece, a line headed by the entry shows the natural chain unless it says otherwise.", "UniProt O95477": "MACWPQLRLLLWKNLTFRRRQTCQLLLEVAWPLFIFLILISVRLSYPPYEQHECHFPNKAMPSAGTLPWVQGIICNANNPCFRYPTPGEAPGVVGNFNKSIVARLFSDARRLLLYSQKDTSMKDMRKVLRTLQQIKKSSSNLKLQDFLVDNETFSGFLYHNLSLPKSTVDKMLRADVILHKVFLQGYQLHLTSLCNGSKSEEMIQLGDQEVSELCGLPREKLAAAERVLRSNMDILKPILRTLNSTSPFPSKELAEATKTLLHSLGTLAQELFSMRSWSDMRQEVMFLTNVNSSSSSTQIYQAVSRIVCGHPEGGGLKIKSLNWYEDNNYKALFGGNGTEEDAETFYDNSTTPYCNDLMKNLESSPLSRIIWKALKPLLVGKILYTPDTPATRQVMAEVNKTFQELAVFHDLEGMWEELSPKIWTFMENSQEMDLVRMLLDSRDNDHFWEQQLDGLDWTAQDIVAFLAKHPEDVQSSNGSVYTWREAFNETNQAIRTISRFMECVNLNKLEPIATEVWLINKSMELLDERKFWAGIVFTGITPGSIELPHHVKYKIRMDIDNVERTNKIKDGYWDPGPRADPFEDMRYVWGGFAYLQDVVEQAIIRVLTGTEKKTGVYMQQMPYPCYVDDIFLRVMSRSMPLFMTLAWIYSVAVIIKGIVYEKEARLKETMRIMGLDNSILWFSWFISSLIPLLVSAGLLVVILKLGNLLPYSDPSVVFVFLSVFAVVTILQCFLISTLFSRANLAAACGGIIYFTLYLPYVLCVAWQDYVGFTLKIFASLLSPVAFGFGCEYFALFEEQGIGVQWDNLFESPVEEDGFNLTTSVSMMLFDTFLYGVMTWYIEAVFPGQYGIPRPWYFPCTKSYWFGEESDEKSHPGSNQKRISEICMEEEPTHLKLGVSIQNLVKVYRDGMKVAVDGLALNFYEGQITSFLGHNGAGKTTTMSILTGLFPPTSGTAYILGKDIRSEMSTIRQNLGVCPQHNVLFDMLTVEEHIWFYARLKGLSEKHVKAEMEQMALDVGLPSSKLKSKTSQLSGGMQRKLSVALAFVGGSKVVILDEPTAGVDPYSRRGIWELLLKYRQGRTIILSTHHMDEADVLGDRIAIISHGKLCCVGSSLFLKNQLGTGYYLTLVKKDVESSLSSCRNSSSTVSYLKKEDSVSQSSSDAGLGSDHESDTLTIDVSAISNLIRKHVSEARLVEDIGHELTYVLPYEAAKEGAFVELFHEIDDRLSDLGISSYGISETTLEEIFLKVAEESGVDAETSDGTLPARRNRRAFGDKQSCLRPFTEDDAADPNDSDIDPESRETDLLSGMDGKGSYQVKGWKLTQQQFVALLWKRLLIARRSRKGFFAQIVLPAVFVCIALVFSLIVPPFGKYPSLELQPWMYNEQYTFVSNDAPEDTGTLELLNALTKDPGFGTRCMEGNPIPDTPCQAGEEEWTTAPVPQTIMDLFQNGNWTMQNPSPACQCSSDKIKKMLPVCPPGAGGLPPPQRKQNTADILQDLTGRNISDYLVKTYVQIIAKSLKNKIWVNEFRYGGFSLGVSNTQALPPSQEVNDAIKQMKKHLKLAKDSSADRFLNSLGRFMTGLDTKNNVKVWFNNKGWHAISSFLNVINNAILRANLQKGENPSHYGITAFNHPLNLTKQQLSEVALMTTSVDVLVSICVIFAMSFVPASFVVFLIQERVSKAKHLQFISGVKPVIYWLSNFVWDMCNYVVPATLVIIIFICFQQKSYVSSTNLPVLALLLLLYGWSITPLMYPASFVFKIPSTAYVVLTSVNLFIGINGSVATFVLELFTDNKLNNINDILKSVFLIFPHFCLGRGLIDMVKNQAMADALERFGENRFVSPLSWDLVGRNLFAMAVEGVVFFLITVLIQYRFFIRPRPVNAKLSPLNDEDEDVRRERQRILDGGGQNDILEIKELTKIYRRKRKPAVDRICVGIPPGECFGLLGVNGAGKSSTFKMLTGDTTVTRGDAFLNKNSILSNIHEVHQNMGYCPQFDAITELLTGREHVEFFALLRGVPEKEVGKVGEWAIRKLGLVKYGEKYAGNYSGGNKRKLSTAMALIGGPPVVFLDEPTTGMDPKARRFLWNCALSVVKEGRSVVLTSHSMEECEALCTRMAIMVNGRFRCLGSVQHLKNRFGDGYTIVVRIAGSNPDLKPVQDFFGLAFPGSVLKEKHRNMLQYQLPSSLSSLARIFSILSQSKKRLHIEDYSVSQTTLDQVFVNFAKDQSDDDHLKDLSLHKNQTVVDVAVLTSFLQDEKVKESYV", "UniProt O94822": "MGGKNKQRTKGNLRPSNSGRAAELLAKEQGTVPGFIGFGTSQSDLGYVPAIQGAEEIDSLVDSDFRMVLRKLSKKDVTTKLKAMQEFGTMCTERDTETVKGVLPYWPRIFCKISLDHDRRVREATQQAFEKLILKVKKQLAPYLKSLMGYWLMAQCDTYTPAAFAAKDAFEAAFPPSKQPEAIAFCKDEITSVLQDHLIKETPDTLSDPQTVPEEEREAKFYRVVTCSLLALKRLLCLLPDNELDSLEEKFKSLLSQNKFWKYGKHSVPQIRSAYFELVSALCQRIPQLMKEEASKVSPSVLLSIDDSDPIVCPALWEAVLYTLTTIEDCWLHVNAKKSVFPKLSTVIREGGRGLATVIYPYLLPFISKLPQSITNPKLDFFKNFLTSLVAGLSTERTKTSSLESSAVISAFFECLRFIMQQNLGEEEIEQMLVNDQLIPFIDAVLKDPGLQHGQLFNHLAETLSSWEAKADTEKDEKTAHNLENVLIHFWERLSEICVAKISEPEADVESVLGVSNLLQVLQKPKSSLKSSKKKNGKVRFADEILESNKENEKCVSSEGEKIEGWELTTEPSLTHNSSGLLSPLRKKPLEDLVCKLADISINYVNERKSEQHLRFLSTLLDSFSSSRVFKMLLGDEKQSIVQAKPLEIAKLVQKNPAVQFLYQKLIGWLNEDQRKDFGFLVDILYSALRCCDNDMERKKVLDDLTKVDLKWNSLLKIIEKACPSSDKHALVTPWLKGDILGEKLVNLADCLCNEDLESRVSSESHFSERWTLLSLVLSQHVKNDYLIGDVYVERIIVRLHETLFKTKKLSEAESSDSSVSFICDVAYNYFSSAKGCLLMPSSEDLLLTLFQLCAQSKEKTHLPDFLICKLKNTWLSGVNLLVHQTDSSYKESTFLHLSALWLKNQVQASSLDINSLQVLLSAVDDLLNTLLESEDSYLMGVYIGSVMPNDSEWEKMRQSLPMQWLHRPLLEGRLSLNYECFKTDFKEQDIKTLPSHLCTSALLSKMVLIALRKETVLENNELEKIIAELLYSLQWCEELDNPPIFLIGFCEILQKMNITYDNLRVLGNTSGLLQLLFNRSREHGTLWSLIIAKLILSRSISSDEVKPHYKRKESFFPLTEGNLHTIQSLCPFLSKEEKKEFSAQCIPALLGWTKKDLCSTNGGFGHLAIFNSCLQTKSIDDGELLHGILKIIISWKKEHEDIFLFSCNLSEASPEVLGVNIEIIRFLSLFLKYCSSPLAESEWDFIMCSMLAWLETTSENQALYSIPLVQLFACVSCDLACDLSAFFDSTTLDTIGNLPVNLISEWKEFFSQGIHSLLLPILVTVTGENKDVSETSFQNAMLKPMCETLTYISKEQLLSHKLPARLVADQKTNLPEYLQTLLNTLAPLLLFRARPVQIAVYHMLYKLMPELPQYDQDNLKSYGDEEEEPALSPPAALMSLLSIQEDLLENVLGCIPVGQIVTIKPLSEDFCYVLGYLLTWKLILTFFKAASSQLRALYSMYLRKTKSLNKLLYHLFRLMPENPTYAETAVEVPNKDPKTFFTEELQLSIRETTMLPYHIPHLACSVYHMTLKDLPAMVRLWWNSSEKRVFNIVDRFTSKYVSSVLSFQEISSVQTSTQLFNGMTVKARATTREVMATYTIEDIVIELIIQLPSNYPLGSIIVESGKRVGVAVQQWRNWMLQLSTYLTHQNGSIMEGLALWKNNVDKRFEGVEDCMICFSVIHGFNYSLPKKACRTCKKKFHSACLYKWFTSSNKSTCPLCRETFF"}, "source": "paper PMC12352907", "target": "GFP-ABCA1-ΔNRNR (human) (UniProt O95477)", "assay": "co-IP; HEK293T cells co-expressing Flag-Listerin with GFP-ABCA1 (WT or truncation mutants), Myc-ABCG1 or Myc-SRB1", "note": "These are yes or no findings as the source states them, for the method shown. In cells and extracts the contact can be indirect. A result given as binding can be weak or reduced; the word gives no strength.", "data": [{"substance": "Flag-Listerin (from UniProt O94822 1-1766) (enzyme)", "values": [{"measurement": "binding", "value": "binds weakly"}]}]}
